Data from article PMC6585848.
Results are given in words; binding and its absence hold for the method and conditions named. Binding calls can cover weak binding; strength is not graded here. Tags and fused reporters may be left off the sequences shown. For part of these data: In cells and extracts the contact can be indirect.

Target: T1, YFP^N-CESA3 (the N-terminal half of YFP fused to the N-terminus of CESA3) (Arabidopsis thaliana) (UniProt Q941L0)
T1 sequence: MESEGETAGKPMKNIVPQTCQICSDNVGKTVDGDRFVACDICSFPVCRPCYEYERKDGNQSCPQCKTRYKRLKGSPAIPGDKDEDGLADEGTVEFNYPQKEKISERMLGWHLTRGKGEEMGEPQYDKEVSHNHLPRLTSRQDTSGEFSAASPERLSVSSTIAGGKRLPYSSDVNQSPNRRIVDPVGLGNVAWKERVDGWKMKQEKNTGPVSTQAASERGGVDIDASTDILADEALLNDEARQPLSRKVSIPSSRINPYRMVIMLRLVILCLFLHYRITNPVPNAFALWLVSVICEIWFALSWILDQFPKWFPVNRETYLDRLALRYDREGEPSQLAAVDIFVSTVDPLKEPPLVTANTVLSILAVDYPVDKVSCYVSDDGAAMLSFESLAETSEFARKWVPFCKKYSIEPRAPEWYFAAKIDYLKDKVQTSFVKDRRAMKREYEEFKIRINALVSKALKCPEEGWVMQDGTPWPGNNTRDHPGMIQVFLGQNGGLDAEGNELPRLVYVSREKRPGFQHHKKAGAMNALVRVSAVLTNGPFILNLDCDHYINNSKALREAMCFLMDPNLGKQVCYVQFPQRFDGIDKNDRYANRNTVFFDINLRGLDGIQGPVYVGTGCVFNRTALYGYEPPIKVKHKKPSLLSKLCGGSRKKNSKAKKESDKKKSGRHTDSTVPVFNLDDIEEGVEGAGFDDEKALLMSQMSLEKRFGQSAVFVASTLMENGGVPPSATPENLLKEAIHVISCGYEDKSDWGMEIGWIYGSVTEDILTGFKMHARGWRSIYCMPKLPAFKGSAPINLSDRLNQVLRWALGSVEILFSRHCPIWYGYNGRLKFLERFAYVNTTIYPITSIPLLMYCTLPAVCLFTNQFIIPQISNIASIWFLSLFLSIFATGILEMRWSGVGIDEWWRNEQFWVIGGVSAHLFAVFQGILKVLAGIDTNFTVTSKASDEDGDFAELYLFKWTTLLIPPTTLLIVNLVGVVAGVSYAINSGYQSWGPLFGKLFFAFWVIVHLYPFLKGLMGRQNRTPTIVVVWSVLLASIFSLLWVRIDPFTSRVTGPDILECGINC
Assay: split reporter; BiFC with the halves of YFP, co-expression in epidermal cells of Nicotiana benthamiana (tobacco) leaves, YFP fluorescence by confocal microscopy

| Substance | binding |
| --- | --- |
| YFP^C-TRM4 (the C-terminal half of YFP fused to the N-terminus of TRM4) (Arabidopsis thaliana) | binds |
| YFP^C-TRM26 | no binding |
| YFP^C-CC1 | binds |

Target: T2, CELLULOSE SYNTHASE 3 fused to the C-terminal part of ubiquitin (Cub) and the URA3 reporter protein (split-ubiquitin bait) (Arabidopsis thaliana) (UniProt Q941L0)
T2 sequence: T1 sequence
Assay: two-hybrid; yeast split-ubiquitin two-hybrid in S. cerevisiae JD53; bait CESA3-Cub-URA3, preys fused to NubG; growth on SC-HT medium with 1 mg/ml 5-FOA; 80 colonies of each combination spotted, 30°C, 3 d

| Substance | binding |
| --- | --- |
| COMPANION OF CELLULOSE SYNTHASE 1 fused to the C-terminus of NubG (split-ubiquitin prey) | binds |
| TONNEAU1 (TON1) recruiting motif 4 fused to the C-terminus of NubG (split-ubiquitin prey) (Arabidopsis thaliana) | binds |
| TRM26 fused to the C-terminus of NubG (split-ubiquitin prey) | no binding |
